# From patent US20250129135A1, “Multi-Agonist and Use Thereof” (priority 2021, published 2025)
# At least one structure is not confirmed: it was looked up by name or label, or the drawing left a doubt.
# Target: T1, Human GIP R (Homo sapiens, UniProt P48546)
# T1 construct: expressed in transfected cells; host or cells: CHO
# T1 sequence (P48546 22-466): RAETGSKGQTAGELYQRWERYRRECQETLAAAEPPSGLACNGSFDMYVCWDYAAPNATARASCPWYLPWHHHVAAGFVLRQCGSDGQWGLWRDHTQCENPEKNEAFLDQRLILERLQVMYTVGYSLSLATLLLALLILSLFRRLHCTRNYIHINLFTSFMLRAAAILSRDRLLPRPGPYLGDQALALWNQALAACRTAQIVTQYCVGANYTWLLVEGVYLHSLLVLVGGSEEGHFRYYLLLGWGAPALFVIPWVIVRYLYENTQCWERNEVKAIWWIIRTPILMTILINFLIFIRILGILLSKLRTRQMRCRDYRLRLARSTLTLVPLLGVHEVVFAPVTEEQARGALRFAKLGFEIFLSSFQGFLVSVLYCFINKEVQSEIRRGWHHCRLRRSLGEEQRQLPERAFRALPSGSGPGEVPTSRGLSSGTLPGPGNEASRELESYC
# Assay: cAMP (HTRF) activity in CHO cells stably overexpressing GIP receptor
# Format: cell-based
# Details: read-out: Human GIP R EC50; stable transfected cell cAMP activity; at least 3 independent tests
# Description: By measuring the cAMP signal response levels of the aforementioned cells, the agonistic activity of individual compound towards the corresponding receptor was determined. The intracellular cAMP content was measured using reagent kit available from Cisbio Corp. based on HTRF (homogeneous time-resolved fluorescence) technology.
# The cell fluid was transferred to 10 ml of HBSS for resuspension, and centrifuged at 1000 rpm for 5 minutes at room temperature.
# 10 μL cell suspension was added to each well in the 384 well plate. […] Using the ECHO liquid transfer system, 100 nL of the prepared compound solution was added to the corresponding cell suspensions in the 384 well plate, rotated and shaken at 1000 rpm for 1 minute to mix evenly, and then incubated at room temperature for 60 minutes. 10 μL of detection reagent was added to each well after drug incubation was completed, and incubation was performed in the kit at room temperature for 60 minutes. […] GraphPad Prism 5 plotting software was used to create compound concentration response curves and EC50 (nM) values was calculated.
structure (smiles),measurement,value
"CC[C@H](C)[C@H](NC(=O)[C@H](CC(C)C)NC(=O)[C@H](Cc1c[nH]c2ccccc12)NC(=O)[C@H](CCC(N)=O)NC(=O)[C@@H](NC(=O)[C@H](Cc1ccccc1)NC(=O)[C@H](C)NC(=O)[C@H](CCCCNC(=O)COCCOCCNC(=O)COCCOCCNC(=O)CC[C@H](NC(=O)CCCCCCCCCCCCCCCCCCC(=O)O)C(=O)O)NC(=O)[C@H](CCC(N)=O)NC(=O)[C@H](C)NC(=O)[C@@H](NC(=O)[C@H](CCCCN)NC(=O)[C@H](CC(=O)O)NC(=O)[C@H](CC(C)C)NC(=O)C(C)(C)NC(=O)[C@@H](NC(=O)[C@H](CO)NC(=O)[C@H](Cc1ccc(O)cc1)NC(=O)[C@H](CC(=O)O)NC(=O)[C@H](CO)NC(=O)[C@@H](NC(=O)[C@H](Cc1ccccc1)NC(=O)[C@@H](NC(=O)CNC(=O)[C@H](CCC(=O)O)NC(=O)C(C)(C)NC(=O)[C@@H](N)Cc1ccc(O)cc1)[C@@H](C)O)[C@@H](C)O)[C@@H](C)CC)[C@@H](C)CC)C(C)C)C(=O)N[C@@H](C)C(=O)NCC(=O)NCC(=O)N1CCC[C@H]1C(=O)N[C@@H](CO)C(=O)N[C@@H](CO)C(=O)NCC(=O)N[C@@H](C)C(=O)N1CCC[C@H]1C(=O)N1CCC[C@H]1C(=O)N1CCC[C@H]1C(=O)N[C@@H](CO)C(N)=O [Tirzepatide, reference compound]",EC50,0.21 nM
